# Test results: the supplement of paper PMC8728848
# The list shows a part of the results.
# B1: Nc3LysM-2 (protein)
# chain: AHVLQARQSVSCDFATAANTGDTCASFAAAWGITEAAFAKLNPGVSCPGNLIAGSEYCVIGTVSTGAPTTTKAATTSTTPPTTTTTTKATTLSTSTTSVSPTGPSPQMPSITSTCNKFYQVQSGDGCWSIEQAQGVSASDFMAWNKAVDAQCDNLWLGYYVCVGVKGGSSPPPTTTTKPASSSAPTPQMPNTVSNCKKFHKVVSGDGCWAIEQAAGISASDFAKWNPYVDAACDNLWLGYYVCIGV
# What was measured:
# Experiment in all cases: glycan array binding signal (z-score within array); higher = stronger binding
# Conditions in all cases: glycan notation: IUPAC condensed, linker removed
# [1] = biological target: Man(a1-2)Man(a1-3)[Man(a1-2)Man(a1-6)]Man(a1-6)[Man(a1-2)Man(a1-2)Man(a1-3)]Man
# Procedure, shortened: (§1)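 The Consortium for Functional Glycomics database supplied 3228 glycan arrays, of which those lacking an available protein sequence were dropped. The binding signal, a within-array Z-score, was averaged across arrays of the same protein sequence and across linkers. Negative scores can be read as non-binding.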
# [2] = biological target: Man(a1-2)Man(a1-3)[Man(a1-2)Man(a1-6)]Man(a1-6)[Man(a1-2)Man(a1-2)Man(a1-3)]Man(b1-4)GlcNAc(b1-4)GlcNAc
# Procedure, shortened: as §1
# [3] = biological target: Man(a1-2)Man(a1-3)[Man(a1-6)]Man(a1-6)[Man(a1-2)Man(a1-3)]Man(b1-4)GlcNAc(b1-4)GlcNAc
# Procedure, shortened: as §1
# [4] = biological target: Man(a1-2)Man(a1-6)[Man(a1-3)]Man(a1-6)[Man(a1-2)Man(a1-2)Man(a1-3)]Man
# Procedure, shortened: as §1
# [5] = biological target: Man(a1-2)Man(a1-6)[Man(a1-3)]Man(a1-6)[Man(a1-2)Man(a1-2)Man(a1-3)]Man(b1-4)GlcNAc(b1-4)GlcNAc
# Procedure, shortened: as §1
# Man(a1-3)[Man(a1-6)]Man = biological target: Man(a1-3)[Man(a1-6)]Man
# Procedure, shortened: as §1
# [6] = biological target: Man(a1-3)[Man(a1-6)]Man(a1-6)[Man(a1-2)Man(a1-3)]Man(b1-4)GlcNAc(b1-4)GlcNAc
# Procedure, shortened: as §1
# [7] = biological target: Man(a1-3)[Man(a1-6)]Man(a1-6)[Man(a1-3)]Man
# Procedure, shortened: as §1
# [8] = biological target: Man(a1-3)[Man(a1-6)]Man(a1-6)[Man(a1-3)]Man(b1-4)GlcNAc(b1-4)GlcNAc
# Procedure, shortened: as §1
# [9] = biological target: Man(a1-3)[Man(a1-6)]Man(b1-4)GlcNAc(b1-4)GlcNAc
# Procedure, shortened: as §1
# [10] = biological target: Man(a1-3)[Man(a1-6)]Man(b1-4)GlcNAc(b1-4)[Fuc(a1-6)]GlcNAc
# Procedure, shortened: as §1
# Man(a1-6)Man = biological target: Man(a1-6)Man
# Procedure, shortened: as §1
# Man(b1-4)GlcNAc = biological target: Man(b1-4)GlcNAc
# Procedure, shortened: as §1
# MurNAc(b1-4)GlcNAc = biological target: MurNAc(b1-4)GlcNAc
# Procedure, shortened: as §1
# Neu5Ac(a2-3)Gal = biological target: Neu5Ac(a2-3)Gal
# Procedure, shortened: as §1
# [11] = biological target: Neu5Ac(a2-3)Gal(b1-3)GalNAc
# Procedure, shortened: as §1
# [12] = biological target: Neu5Ac(a2-3)Gal(b1-3)GalNAc(b1-3)Gal(a1-4)Gal(b1-4)Glc
# Procedure, shortened: as §1
# [13] = biological target: Neu5Ac(a2-3)Gal(b1-3)GalNAc(b1-4)Gal(b1-4)Glc
# Procedure, shortened: as §1
# [14] = biological target: Neu5Ac(a2-3)Gal(b1-3)GalNAc(b1-4)[Neu5Ac(a2-3)]Gal(b1-4)Glc
# Procedure, shortened: as §1
# [15] = biological target: Neu5Ac(a2-3)Gal(b1-3)GalNAc(b1-4)[Neu5Ac(a2-8)Neu5Ac(a2-3)]Gal(b1-4)Glc
# Procedure, shortened: as §1
# [16] = biological target: Neu5Ac(a2-3)Gal(b1-3)GalNAc6S
# Procedure, shortened: as §1
# [17] = biological target: Neu5Ac(a2-3)Gal(b1-3)GlcNAc
# Procedure, shortened: as §1
# [18] = biological target: Neu5Ac(a2-3)Gal(b1-3)GlcNAc(b1-2)Man
# Procedure, shortened: as §1
# [19] = biological target: Neu5Ac(a2-3)Gal(b1-3)GlcNAc(b1-2)Man(a1-3)[GlcNAc(b1-4)][Neu5Ac(a2-3)Gal(b1-3)GlcNAc(b1-2)Man(a1-6)]Man(b1-4)GlcNAc(b1-4)GlcNAc
# Procedure, shortened: as §1
# [20] = biological target: Neu5Ac(a2-3)Gal(b1-3)GlcNAc(b1-2)Man(a1-3)[Neu5Ac(a2-3)Gal(b1-3)GlcNAc(b1-2)Man(a1-6)]Man(b1-4)GlcNAc(b1-4)GlcNAc
# Procedure, shortened: as §1
# [21] = biological target: Neu5Ac(a2-3)Gal(b1-3)GlcNAc(b1-2)[Neu5Ac(a2-3)Gal(b1-3)GlcNAc(b1-4)]Man(a1-6)[Neu5Ac(a2-3)Gal(b1-3)GlcNAc(b1-2)Man(a1-3)]Man(b1-4)GlcNAc(b1-4)GlcNAc
# Procedure, shortened: as §1
# [22] = biological target: Neu5Ac(a2-3)Gal(b1-3)GlcNAc(b1-3)Gal(b1-3)GlcNAc
# Procedure, shortened: as §1
# [23] = biological target: Neu5Ac(a2-3)Gal(b1-3)GlcNAc(b1-3)Gal(b1-4)GlcNAc
# Procedure, shortened: as §1
# [24] = biological target: Neu5Ac(a2-3)Gal(b1-3)GlcNAc(b1-3)GalNAc
# Procedure, shortened: as §1
# [25] = biological target: Neu5Ac(a2-3)Gal(b1-3)GlcNAc(b1-6)GalNAc
# Procedure, shortened: as §1
# [26] = biological target: Neu5Ac(a2-3)Gal(b1-3)GlcNAc6S
# Procedure, shortened: as §1
# [27] = biological target: Neu5Ac(a2-3)Gal(b1-3)[Fuc(a1-4)]GlcNAc
# Procedure, shortened: as §1
# [28] = biological target: Neu5Ac(a2-3)Gal(b1-3)[Fuc(a1-4)]GlcNAc(b1-3)Gal(b1-3)[Fuc(a1-4)]GlcNAc
# Procedure, shortened: as §1
# [29] = biological target: Neu5Ac(a2-3)Gal(b1-3)[Fuc(a1-4)]GlcNAc(b1-3)Gal(b1-4)[Fuc(a1-3)]GlcNAc
# Procedure, shortened: as §1
# [30] = biological target: Neu5Ac(a2-3)Gal(b1-3)[GlcNAc(b1-6)]GalNAc
# Procedure, shortened: as §1
# [31] = biological target: Neu5Ac(a2-3)Gal(b1-3)[Neu5Ac(a2-6)]GalNAc
# Procedure, shortened: as §1
# [32] = biological target: Neu5Ac(a2-3)Gal(b1-3)[Neu5Ac(a2-6)]GlcNAc(b1-3)[Fuc(a1-3)[Gal(b1-4)]GlcNAc(b1-6)]Gal(b1-4)Glc
# Procedure, shortened: as §1
binder,measurement,setting,value
B1,glycan array binding signal (z-score),[1],-0.422
same,glycan array binding signal (z-score),[2],1.17
same,glycan array binding signal (z-score),[3],-1.14
same,glycan array binding signal (z-score),[4],-1.62
same,glycan array binding signal (z-score),[5],1.1
same,glycan array binding signal (z-score),Man(a1-3)[Man(a1-6)]Man,-1.26
same,glycan array binding signal (z-score),[6],-0.822
same,glycan array binding signal (z-score),[7],-0.186
same,glycan array binding signal (z-score),[8],-0.22
same,glycan array binding signal (z-score),[9],-1.25
same,glycan array binding signal (z-score),[10],0.411
same,glycan array binding signal (z-score),Man(a1-6)Man,0.852
same,glycan array binding signal (z-score),Man(b1-4)GlcNAc,1.42
same,glycan array binding signal (z-score),MurNAc(b1-4)GlcNAc,-1.52
same,glycan array binding signal (z-score),Neu5Ac(a2-3)Gal,-0.674
same,glycan array binding signal (z-score),[11],0.707
same,glycan array binding signal (z-score),[12],0.381
same,glycan array binding signal (z-score),[13],-0.312
same,glycan array binding signal (z-score),[14],0.161
same,glycan array binding signal (z-score),[15],-0.18
same,glycan array binding signal (z-score),[16],0.208
same,glycan array binding signal (z-score),[17],0.767
same,glycan array binding signal (z-score),[18],0.324
same,glycan array binding signal (z-score),[19],-1.28
same,glycan array binding signal (z-score),[20],1.83
same,glycan array binding signal (z-score),[21],1.06
same,glycan array binding signal (z-score),[22],-0.311
same,glycan array binding signal (z-score),[23],-0.494
same,glycan array binding signal (z-score),[24],0.211
same,glycan array binding signal (z-score),[25],-0.33
same,glycan array binding signal (z-score),[26],1.62
same,glycan array binding signal (z-score),[27],0.142
same,glycan array binding signal (z-score),[28],1.39
same,glycan array binding signal (z-score),[29],0.418
same,glycan array binding signal (z-score),[30],-0.46
same,glycan array binding signal (z-score),[31],-0.397
same,glycan array binding signal (z-score),[32],-0.063

# A different layout for part of the listing above:
binder | measurement | setting | value
B1 | glycan array binding signal (z-score) | [24] | 0.211
same | glycan array binding signal (z-score) | [25] | -0.33
